Laboratory results reported in patent US8389555B2, “Medicaments” (Motac Neuroscience Limited, priority 2007, dated 2013).
Some of these results come from one statement about several compounds together. For at least one compound, name, drawing or mass did not settle the structure.

System: 6-OHDA-lesioned rat model of Parkinson's disease
Test: Rotational behaviour in 6-OHDA-lesioned rat model of Parkinson's disease
Assay type: in vivo
Settings: for maximal effect after application (time): administered orally or by the intra-peritoneal route, FIG. 1, 2, 5, 8, 11, 14, 19; for duration of action: in vivo rat model
Description: Preparation of 6-OHDA-Lesioned Rat Model of Parkinson's Disease
Male Sprague-Dawley rats weighing 290-350 g were used. The rats were housed in a temperature-controlled room under a 12 hour light/dark cycle with free access to food and water. Thirty minutes prior to surgery, the animals were given the monoamine oxidase-B inhibitor pargyline (5 mg/kg i.p.;) and the noradrenaline uptake inhibitor desipramine (25 mg/kg i.p.). The rats were then placed under general anaesthesia (Flourothane) and immobilised in stereotaxic frame. Following reflection of cranial skin and periostium, a small bur-hole was made in the skull on the right side and a small puncture was made in the dura mater. Each animal then received a unilateral injection of 2.5 μl of the neurotoxin 6-hydroxydopamine hydrobromide (6-OHDA HBr; 5 mg/ml in sterile water with 0.1% ascorbic acid; i.e. 12.5 μg 6-OHDA per rat) into the right medial forebrain bundle at stereotaxic co-ordinates −2.8 mm from bregma, 2 mm lateral to the midline, and 9 mm below the skull. The 6-OHDA injection was made over a 5 minute period using a 5 μl Hamilton syringe. The rats were allowed to recover for 3 weeks following the lesion. Animals then received 0.05 mg/kg s.c. apomorphine to assess the extent of lesion. Animals displaying clear rotational behaviour directed contralateral to the lesioned side were selected for further studies.
Only lesioned animals were used in the study (as determined by apomorphine rotation).
Animals were administered a dose of the test compound at 1 mg/kg or 3 mg/kg (i.p.) and rotational behaviour was assessed for up to 4 hours following drug administration using automated rotometers. Alternatively, animals were administered a dose of the test compound at 10 mg/kg (p.o.) and rotational behaviour was assessed for up to 8 hours following drug administration using automated rotometers.
Each compound was administered to at least 5 rats.
Total net rotational activity. This parameter is calculated as the total number of 180° rotations (net contralateral) over the duration of the experiment.
Data were analysed independently for each novel compound with appropriate parametric statistics. All tests were carried out in Graphpad Prism Version 3.

SMILES | maximal effect after application (time) | duration of action
CCCN(CCCCNC(=O)c1ccc2ncsc2c1)C1CCc2ncsc2C1 (stereo not shown) [Compound 15] | ≤ 15 min | 
CCN(CCN1CCN(c2ccccc2OC)CC1)C1CCc2ncsc2C1 (stereo not shown) [Compound 28] |  | up to 8 hours
CCCN(CCCCC(=O)Nc1ccc2ccccc2c1)C1CCc2ncsc2C1 (stereo not shown) [Compound 9, 5-[Propyl-(4,5,6,7-tetrahydro-benzothiazol-6-yl)-amino]-pentanoic acid naphthalen-2-ylamide] | ≤ 15 min | 
CCCN(CCN1CCN(c2ccccc2OC)CC1)C1CCc2ncsc2C1 (stereo not shown) [Compound 34, {2-[4-(2-Methoxy-phenyl)-piperazin-1-yl]-ethyl}-propyl-(4,5,6,7-tetrahydro-benzothiazol-6-yl)-amine] |  | up to 8 hours
CCCN(CCCCC(=O)NC1Cc2ccccc2C1)C1CCc2ncsc2C1 (stereo not shown) [Compound 67, N-(2,3-dihydro-1H-inden-2-yl)-5-(propyl-(4,5,6,7-tetrahydrobenzothiazol-6-yl)amino)pentanamide] | ≤ 15 min | 
CCN(CCN(CC)C1CCc2ncsc2C1)C1CCc2ncsc2C1 (stereo not shown) [Compound 33, N,N′-Diethyl-N,N′-bis-(4,5,6,7-tetrahydro-benzothiazol-6-yl)-ethane-1,2-diamine] |  | up to 8 hours
CCCN(CCN1CCN(C(=O)c2cccc3ccccc23)CC1)C1CCc2ncsc2C1 (stereo not shown) [Compound 39, [2-(4-Naphthoyl-piperazin-1-yl)-ethyl]-propyl-(4,5,6,7-tetrahydro-benzothiazol-6-yl)-amine] | ≤ 15 min | 
CCCN(CCCCNC(=O)N1CCc2ccccc2C1)C1CCc2ncsc2C1 (stereo not shown) [Compound 24, 3,4-Dihydro-1H-isoquinoline-2-carboxylic acid {4-[propyl-(4,5,6,7-tetrahydro-benzothiazol-6-yl)-amino]-butyl}-amide] | ≤ 15 min | 
CCCN(CCCCNC(=O)N1CCc2cc(OC)c(OC)cc2C1)C1CCc2ncsc2C1 (stereo not shown) [Compound 25, 6,7-Dimethoxy-3,4-dihydro-1H-isoquinoline-2-carboxylic acid {4-[propyl-(4,5,6,7-tetrahydro-benzothiazol-6-yl)-amino]-butyl}-amide] | ≤ 15 min | 
CCCN(CCCCNC(=O)c1ccccc1)C1CCc2ncsc2C1 (stereo not shown) [Compound 1, N-{4-[Propyl-(4,5,6,7-tetrahydro-benzothiazol-6-yl)-amino]-butyl}-benzamide] | ≤ 15 min | 
